The record followed here is US20230287391A1, “KRAB FUSION REPRESSORS AND METHODS AND COMPOSITIONS FOR REPRESSING GENE EXPRESSION” (THE GOVERNING COUNCIL OF THE UNIVERSITY OF TORONTO, priority 2020, published 2023).

Protein sequences, listed by entry. Tags and fused reporters are not part of them. Lines headed by an entry give the natural chain unless they say otherwise; changes in a name come on top. Residues count along the entry.
UniProt Q13263: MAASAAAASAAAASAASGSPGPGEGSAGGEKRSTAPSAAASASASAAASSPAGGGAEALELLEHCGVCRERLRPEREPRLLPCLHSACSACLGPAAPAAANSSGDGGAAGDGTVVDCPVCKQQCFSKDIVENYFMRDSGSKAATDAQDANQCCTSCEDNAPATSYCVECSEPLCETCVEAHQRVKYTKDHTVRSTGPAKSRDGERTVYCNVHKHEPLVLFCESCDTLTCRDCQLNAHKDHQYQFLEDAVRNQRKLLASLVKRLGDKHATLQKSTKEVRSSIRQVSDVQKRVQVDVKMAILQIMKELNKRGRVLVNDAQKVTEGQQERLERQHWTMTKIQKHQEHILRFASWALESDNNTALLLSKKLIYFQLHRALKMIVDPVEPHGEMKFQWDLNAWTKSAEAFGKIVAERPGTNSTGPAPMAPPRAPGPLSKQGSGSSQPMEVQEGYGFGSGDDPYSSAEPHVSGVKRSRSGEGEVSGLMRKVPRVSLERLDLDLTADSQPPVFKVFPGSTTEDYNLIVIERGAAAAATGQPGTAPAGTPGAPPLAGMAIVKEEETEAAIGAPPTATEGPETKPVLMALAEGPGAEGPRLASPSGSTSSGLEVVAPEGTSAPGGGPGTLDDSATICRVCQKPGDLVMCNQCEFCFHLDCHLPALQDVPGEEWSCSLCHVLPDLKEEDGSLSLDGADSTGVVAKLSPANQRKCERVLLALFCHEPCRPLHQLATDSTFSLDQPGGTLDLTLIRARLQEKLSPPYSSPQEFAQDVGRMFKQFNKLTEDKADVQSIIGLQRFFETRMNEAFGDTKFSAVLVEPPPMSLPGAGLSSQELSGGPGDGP
UniProt P21506, residues 1-105: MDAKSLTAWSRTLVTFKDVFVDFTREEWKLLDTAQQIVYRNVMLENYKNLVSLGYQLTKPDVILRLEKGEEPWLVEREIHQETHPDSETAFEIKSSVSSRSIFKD
UniProt Q96PE6: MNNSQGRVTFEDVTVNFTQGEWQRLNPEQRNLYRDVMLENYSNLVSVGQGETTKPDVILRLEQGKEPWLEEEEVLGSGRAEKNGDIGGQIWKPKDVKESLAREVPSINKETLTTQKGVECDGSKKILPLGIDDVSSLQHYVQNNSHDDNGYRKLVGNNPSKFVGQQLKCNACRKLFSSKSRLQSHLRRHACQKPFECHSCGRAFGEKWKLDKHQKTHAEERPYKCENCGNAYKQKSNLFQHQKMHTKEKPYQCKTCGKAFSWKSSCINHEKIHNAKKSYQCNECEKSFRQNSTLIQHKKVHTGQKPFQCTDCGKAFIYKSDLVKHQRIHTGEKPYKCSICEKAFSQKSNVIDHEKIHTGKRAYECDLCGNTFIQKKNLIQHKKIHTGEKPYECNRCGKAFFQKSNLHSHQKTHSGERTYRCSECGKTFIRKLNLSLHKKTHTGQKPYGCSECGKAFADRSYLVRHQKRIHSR

No constants are given. Whether binding was seen depends on the method and setting. Some binding calls cover weakened binding; strength is not graded here.

This experiment addresses NLuc-tagged TRIM28 (tag at the C-terminus) (UniProt Q13263). Kind of experiment: LUMIER in 293T cells: KRAB-EGFP-3xFLAG bait captured on anti-FLAG plate, luminescence of NLuc-TRIM28.

On to “KOX1 KRAB domain C-terminally tagged with EGFP-3xFLAG (from UniProt P21506 1-105)”, for which the binding result is “binds”.

As to “ZIM3 KRAB domain C-terminally tagged with EGFP-3xFLAG (from UniProt Q96PE6 1-100)”, the binding result is on record as “binds”.
